Experimental data: PubChem BioAssay AID2685 (National Center for Advancing Translational Sciences (NCATS), 2010)
The list shows a part of the results. Further columns of the screen follow, without active or inactive calls. The list favours compounds with an active or inconclusive main result. Potencies come from curve fits of mixed quality, noted in brackets.

Assay: qHTS Assay for Lipid Storage Modulators in Drosophila S3 Cells;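 as to cell number change: cells counted by Cell Tracker Red CMTPX staining in the red channel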
Conditions: BODIPY lipid droplet fluorescence, 18-24 h; for cell number change: measured here: cell count max response, cells fed with added oleic acid
Outline: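 Drosophila S3 cells got compounds at several concentrations plus oleic acid (400 uM solution). Laser-scanning cytometry with 488 nm excitation read lipid droplets at 500-530 nm and cells at 575-640 nm. Percent activity was relative to 20 uM Triacsin C.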

[1] = measured here: lipid fluorescence (Fed channel) AC50, cells fed with added oleic acid
[2] = measured here: cell number channel AC50, cells fed with added oleic acid

Compound | cell number change | AC50 [1] | AC50 [2]
O=C(c1ccc(Cl)cc1)c1ccc(OCC(O)CN2CCOCC2)cc1 (stereo not drawn) | -13.8% | – | –
O=C(COC(=O)CCc1c[nH]c2ccccc12)NCc1ccccc1 | -3.41% | 0.366 µM [falling, full curve] | –
CC(C)CCN1CC(C(=O)NCc2ccccc2)CC1=O (stereo not drawn) | -106% | 29.1 µM [falling, single point] | –
COc1ccc(C2=NS(=O)(=O)N(C)C(C(=O)NC3CCCCC3)=C2)cc1 | 3.75% | – | –
CCN(CC)S(=O)(=O)c1ccc(OC)c(NS(=O)(=O)c2ccc(F)cc2)c1 | -50.6% | 5.8 µM [falling, full curve] | 4.11 µM [falling, full curve]
Cc1cc(NC(=O)NC(=O)c2ccccc2)no1 | -0.348% | 0.112 µM [rising, full curve, poor fit] | –
CC(=O)c1c(C)nc2ccccn12 | 0.609% | 3.66 µM [falling, single point] | –
Cc1cc(C)cc(N(C(=O)CNS(=O)(=O)c2ccccc2)C(C(=O)NCc2ccccc2)c2ccc(C)o2)c1 (stereo not drawn) | -12.7% | 32.6 µM [falling, single point] | –
Cc1ccc(S(=O)(=O)N2CCN(S(=O)(=O)N(C)C)CC2)cc1 | -6.77% | 20.6 µM [falling, partial curve] | –
CC(C)(C)C(=O)c1cnc(Nc2ccccc2)s1 | -57.8% | 18.4 µM [falling, single point] | 16.4 µM [falling, partial curve]
CN(Cc1nc(-c2ccc3c(c2)OCO3)no1)CC1(N2CCOCC2)CCCCC1 | 3.8% | – | –
O=C(NNC(=O)c1cncc(Br)c1)c1ccncc1 | -4.16% | 0.651 µM [falling, single point] | –
COc1cccc(C(C[N+](=O)[O-])c2c(C)[nH]n(-c3ccccc3)c2=O)c1 (stereo not drawn) | -9.85% | 3.66 µM [falling, partial curve, poor fit] | –
O=C1c2ccccc2C(=O)C1Cc1cccc2ccccc12 | 9.42% | 2.59 µM [rising, partial curve] | –
COc1cccc(N(C(=O)c2ccco2)c2nc(-c3sc(NC(=O)c4ccco4)nc3C)cs2)c1 | -36.7% | 5.8 µM [falling, partial curve] | 10.3 µM [falling, partial curve]
C=CCn1c(SCCC(=O)O)nnc1-c1cccs1 | -31.5% | 1.84 µM [falling, partial curve] | 1.46 µM [falling, full curve, poor fit]
COc1ccc(C(=O)Nc2ccc(N3CCCC3)cc2)cc1Br | -2.91% | – | –
CCOc1ccc(CCNC(=O)c2ccc3nc(N4CCOCC4)sc3c2)cc1OCC | 7.47% | – | 0.411 µM [rising, partial curve, poor fit]
O=C(CCc1ccccc1)NNC(=O)CCc1ccccc1 | 5.49% | 1.03 µM [falling, full curve, poor fit] | –
CCN(Cc1ccncc1)C(=O)Cc1cccs1 | -24.1% | – | –
CN(C)Cc1c(O)ccc2[nH]cnc12 | -30.9% | 20.6 µM [falling, single point] | 1.3 µM [falling, full curve, poor fit]

Compound | cell number change | AC50 [1] | AC50 [2]
CCc1cccc(CC)c1NC(=O)c1cccc(N)c1 | 41.8% | – | 2.91 µM [rising, partial curve]
FC(F)c1nnc2c(Cl)cc(C(F)(F)F)cn12 | – | 0.708 µM [falling, single point] | 0.794 µM [falling, full curve]
COc1ccccc1CN1CC(C(=O)N2CCCCCCC2)CCC1=O (stereo not drawn) | 6.65% | – | –
COc1ccc(Cc2nnc(SCC(=O)Nc3nc(C)cs3)o2)cc1 | -7.58% | – | –
Cc1ccc(NC(=O)C(C)OC(=O)c2ccc(NC(=O)CC#N)cc2)cc1S(=O)(=O)N1CCOCC1 (stereo not drawn) | 32.7% | – | 13 µM [rising, single point]
O=C(NCc1ccccc1)c1ccc2nc(-c3ccco3)c(-c3ccco3)nc2c1 | -26.7% | 3.66 µM [rising, full curve] | –
O=C(Nc1cccc(-c2ccc3nncn3n2)c1)C(F)(F)F | -6.87% | 0.58 µM [rising, single point] | –
N=c1c(C(=O)NCc2ccc(F)cc2)cc2c(=O)n3ccccc3nc2n1Cc1cccnc1 | – | 11.6 µM [rising, partial curve] | 0.13 µM [rising, full curve, poor fit]
Cc1ccc(/C=N/Nc2nc3ccccc3[nH]2)s1 | -22.3% | 29.1 µM [falling, single point] | –
O=C(N/N=C/c1cccc(F)c1)c1c(O)c2c([nH]c1=O)CCCC2 | 100% | 29.1 µM [rising, single point] | 1.46 µM [falling, partial curve]
O=C(NC(=S)NCc1ccncc1)c1ccccc1 | 127% | 0.82 µM [rising, single point] | –
COc1cccc(C(N)CC(=O)O)c1 (stereo not drawn) | -20.3% | – | 0.082 µM [falling, full curve, poor fit]
Cc1ccc(CNS(=O)(=O)c2cc3c4c(c2)C(C)C(=O)N4CCC3)cc1 (stereo not drawn) | 24.4% | 18.4 µM [falling, partial curve] | –
CCc1ccc(/C=C2\Oc3cc(OC(=O)N4CCOCC4)ccc3C2=O)cc1 | -18.6% | – | –
CCN(CC)S(=O)(=O)c1ccc2c(c1)nc(CCC(=O)Nc1ccc(N3CCOCC3)cc1)n2C | -3.73% | – | –
O=C(Nc1ccc(S(=O)(=O)Nc2ncccn2)cc1)c1ccc(F)c(S(=O)(=O)N2CCOCC2)c1 | 16.1% | 23.1 µM [rising, single point] | –
COc1ccccc1CNC(=O)c1ccccc1C(=O)NC(C)(C)C(=O)NCc1ccccc1OC | -8.4% | 0.58 µM [falling, single point] | –
Cc1cc(C)c2c(SC(C)C)nc(N)nc2n1 | – | 2.91 µM [rising, single point] | –
COc1cccc(CC(=O)OCC(=O)N2CCN(c3ccc(F)cc3)CC2)c1 | -7.46% | 29.1 µM [rising, partial curve, poor fit] | –
COC(=O)Cc1c(O)ccn(CCc2ccccc2)c1=O | -29.4% | – | –
O=c1c2ccccc2n(CC(O)CN2CCOCC2)c2ccccc12 (stereo not drawn) | 4.26% | – | –

Compound | cell number change | AC50 [1] | AC50 [2]
CCOc1ccc(/C=N/OCC(=O)NC(c2ccccc2)c2ccccc2)cc1 | -9.25% | 16.4 µM [rising, single point] | –
CN(C)S(=O)(=O)Oc1ccccc1C(=O)Nc1cccc(C(F)(F)F)c1 | -30.5% | 0.00461 µM [falling, full curve] | –
CCN(C(=O)CSc1nc2cc(Cl)ccc2c(=O)n1Cc1ccco1)C1CCS(=O)(=O)C1 (stereo not drawn) | – | 0.00461 µM [rising, full curve, poor fit] | 0.00461 µM [rising, full curve, poor fit]
CCOc1cc(C(=O)OCC(=O)Nc2ccc(F)cc2Cl)ccc1OCC(=O)N1CCOCC1 | – | 18.4 µM [falling, single point] | –
COc1ccccc1/C=N/NC(=O)c1ccccc1Cl | -21.4% | 6.51 µM [falling, partial curve, poor fit] | 0.116 µM [falling, full curve, poor fit]
Cc1cc2nc(Sc3c([N+](=O)[O-])nc(C)n3Cc3ccccc3)[nH]c2cc1C | -12.1% | 18.4 µM [falling, single point] | –
[N-]=[N+]=NC1C[C@H](n2ccc(=O)[nH]c2=O)O[C@@H]1CO (stereo partly drawn) | 6.84% | 4.61 µM [falling, single point] | –
O=C(O)c1ccccc1-c1ccccc1C(=O)NCCc1ccccc1 | 3.02% | – | –
Cc1c(C)c2ccc(OCC(=O)N3CCN(c4cccc(Cl)c4)CC3)cc2oc1=O | 45.6% | – | 16.4 µM [rising, partial curve, poor fit]
COc1ccc(CC(=O)Nc2c3c(nn2-c2cccc(C)c2C)CS(=O)C3)cc1 (stereo not drawn) | 10.7% | 0.517 µM [rising, partial curve] | –
Cc1cc(Cl)c(S(=O)(=O)Nc2ccc3c(c2)OCCO3)cc1OCC(=O)NC1CCCCC1 | 24.8% | – | 0.092 µM [rising, full curve]
Cc1sc2nc(SC3CCOC3=O)n(Cc3ccccc3)c(=O)c2c1C (stereo not drawn) | 1.54% | – | 0.092 µM [falling, full curve, poor fit]
Cc1ccc(NC(=O)C2CCCN(c3nccc(C)n3)C2)c(C)c1 (stereo not drawn) | 34.8% | – | 3.26 µM [rising, partial curve]
N#CC1=C(N)NC(SCC(=O)c2ccccc2)=C(C#N)C12CCCC2 | 47.5% | 4.11 µM [rising, partial curve] | 10.3 µM [rising, partial curve, poor fit]
Cc1ccc([N+](=O)[O-])cc1S(=O)(=O)NCc1cccnc1 | 28.6% | 2.31 µM [rising, single point] | 0.259 µM [rising, full curve, poor fit]
CCCCC(=O)Nc1nnc(S(=O)(=O)N2CCCc3ccccc32)s1 | -4.79% | 32.6 µM [falling, single point] | –
Cc1cccc(NC(=O)C2CCCN2C(=O)OCc2ccccc2)c1 (stereo not drawn) | -17.9% | 16.4 µM [falling, single point] | –
COc1cc2c(cc1OC)C(c1cccc(Br)c1)NC(=O)C2 (stereo not drawn) | 18.6% | 18.4 µM [falling, single point] | –
COc1ccc(CNCC(O)COc2cccc3c2OC(C)(C)C3)cc1 (stereo not drawn) | -8.15% | 0.0146 µM [rising, full curve, poor fit] | 0.058 µM [rising, full curve, poor fit]

5 compounds from above, sorted by number of heavy atoms, smallest number first:
Compound | cell number change | AC50 [1] | AC50 [2]
Cc1cc(NC(=O)NC(=O)c2ccccc2)no1 | -0.348% | 0.112 µM [rising, full curve, poor fit] | –
CCc1cccc(CC)c1NC(=O)c1cccc(N)c1 | 41.8% | – | 2.91 µM [rising, partial curve]
COc1ccc(C2=NS(=O)(=O)N(C)C(C(=O)NC3CCCCC3)=C2)cc1 | 3.75% | – | –
CCN(CC)S(=O)(=O)c1ccc(OC)c(NS(=O)(=O)c2ccc(F)cc2)c1 | -50.6% | 5.8 µM [falling, full curve] | 4.11 µM [falling, full curve]
Cc1c(C)c2ccc(OCC(=O)N3CCN(c4cccc(Cl)c4)CC3)cc2oc1=O | 45.6% | – | 16.4 µM [rising, partial curve, poor fit]
